# Laboratory results reported in patent US20080166352A1.
# Amino acid sequences for entries named in this document (tags omitted). Residues count along the entry.
# UniProt O75144, residues 19-256: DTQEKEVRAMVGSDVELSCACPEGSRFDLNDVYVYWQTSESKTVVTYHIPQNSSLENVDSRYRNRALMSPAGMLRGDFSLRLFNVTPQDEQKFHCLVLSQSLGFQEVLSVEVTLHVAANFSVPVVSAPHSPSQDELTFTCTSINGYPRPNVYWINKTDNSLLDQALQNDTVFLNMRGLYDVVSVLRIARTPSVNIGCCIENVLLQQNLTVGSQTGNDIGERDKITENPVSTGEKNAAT
# Numbering of substitutions follows the chain as printed. No constants are given. Whether binding was seen depends on the method and setting. Some binding calls cover weakened binding; strength is not graded here.
# B1: anti-B7RP1 human monoclonal antibody 2H (antibody, V domains shown)
# VH: EVQLVESGGGLVQPGGSLRLSCVGSGFTFSSYWMSWVRQAPGKGLEWVAYIKQDGSEKYYVDSVKGRFTISRDNAKNSLYLQMNSLRAEDTAVYYCARDGILWFGDIPTYWGQGILVTVSS
# VL: DIQMTQSPSSLSASVGDRVTITCRASQGISNWLAWYQQKPEKAPKSLIYTASSLQSGVPSRFSGSGSGTDFTLTISSLQPEDFATYYCQQYNSYPRTFGQGTKVEIK
# B2: anti-B7RP1 human monoclonal antibody 2H germline (antibody, V domains shown)
# VH: B1 VH with V23A, G24A, I115T
# VL: B1 VL
# B3: anti-B7RP1 human monoclonal antibody 16H (antibody, V domains shown)
# VH: B1 VH with V23A, S56N, N77K, D99E, I107L, Y110F
# VL: B1 VL with T50A, N92D
# Assays:
# [1] = target: soluble recombinant human B7RP-1 (human) (UniProt O75144); test: Biacore and KinExA
# [2] = target: soluble recombinant human B7RP-1 (human) (UniProt O75144); test: KinExA
# [3] = target: cynomolgus monkey B7RP-1 on cynomolgus B cells (cynomolgus monkey); test: flow cytometry (FIG. 12A legend)
# [4] = target: cynomolgus monkey B7RP-1 on cynomolgus B cells (cynomolgus monkey); test: flow cytometry on purified cynomolgus B cells
binder,measurement,setting,value
B1,binding,[1],binds
B2,binding,[2],binds
B3,binding,[3],binds
same,binding,[4],binds
